Values from PubChem BioAssay AID1224826 (NIAID, 2016).
Aim: 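Regulators of Tlr4 signalling leading to Tnf-alpha expression in macrophages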 (primary screen). Cells: RAW264.7 G9 macrophages from mouse bearing reporters for p65 (GFP) and the Tnf promoter (mCherry). Reagent: siRNA pool against mouse genes, 100 nM. Duration: 16 h of LPS stimulation, after 2 days of siRNA transfection. Challenge: bacterial lipopolysaccharide (Salmonella minnesota R595), 10 ng/ml. Detection: 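Imaged Tnf reporter mCherry in nuclei, minus background, normalised per plate to the median and expressed as robust z-scores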. Direction: Tnf reporter robust z-score: higher = stronger Tnf promoter reporter signal after LPS; Tnf reporter intensity: higher = stronger Tnf promoter reporter signal. Active means: 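Called active when robust z-score is at most -1.3, matching the median of the Tlr4 knock-down control, or over 3; control wells and wells with under 50 cells never active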. Calls: active = Tnf reporter clearly lowered or raised; inactive = no clear change in Tnf reporter.
In all, the deposit lists about 17,000 reagents; this is a random part of them. About 1,110 of them (6.6%) were called active. 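Active means lowered or raised reporter signal; replicate intensities are raw and not normalised per plate.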 Reagent sequences are not shown.

Target gene | Tnf reporter robust z-score | fewer than 50 cells in well | Tnf reporter intensity, replicate 1 | Tnf reporter intensity, replicate 2 | call
Ctf2 | 1.47 | enough cells in well | 298 | 241 | inactive
Ca13 | 0.42 | enough cells in well | 130 | 281 | inactive
Dap | -0.5 | enough cells in well | 175 | 209 | inactive
H2-T24 | -0.2 | enough cells in well | 268 | 127 | inactive
Kctd18 | 0.06 | enough cells in well | 201 | 174 | inactive
Fam13b | -0.25 | enough cells in well | 154 | 153 | inactive
Gnb1l | 2.18 | enough cells in well | 489 | 242 | inactive
Pms1 | 1.33 | enough cells in well | 413 | 229 | inactive
Or4c110 | -1.15 | enough cells in well | 111 | 95.2 | inactive
Ttc12 | – | fewer than 50 cells per well; well left out of calls | 151 | 83.3 | inactive
Tulp2 | 0.57 | enough cells in well | 235 | 320 | inactive
Prss2 | 0.5 | enough cells in well | 150 | 153 | inactive
Cdc37l1 | 0.79 | enough cells in well | 274 | 300 | inactive
Metap2 | 0.82 | enough cells in well | 286 | 150 | inactive
Epha6 | 0.7 | enough cells in well | 315 | 162 | inactive
Adsl | 3.83 | enough cells in well | 393 | 381 | active
Fbxo38 | 2.46 | enough cells in well | 382 | 297 | inactive
Rhag | -1.07 | enough cells in well | 151 | 123 | inactive
Jph1 | 0.06 | enough cells in well | 183 | 143 | inactive
Txnl1 | – | fewer than 50 cells per well; well left out of calls | 162 | 428 | inactive
Ppp1ca | 0.64 | enough cells in well | 332 | 205 | inactive
Phaf1 | 1.28 | enough cells in well | 256 | 341 | inactive
Timm22 | 1.41 | enough cells in well | 221 | 96.8 | inactive
Fgf21 | -1.18 | enough cells in well | 137 | 158 | inactive
Gipc1 | -1.35 | enough cells in well | 171 | 59.4 | active

In a second layout: entries from further up
Adsl | Tnf reporter robust z-score = 3.83; fewer than 50 cells in well = enough cells in well; Tnf reporter intensity, replicate 1 = 393; Tnf reporter intensity, replicate 2 = 381; call = active
Fbxo38 | Tnf reporter robust z-score = 2.46; fewer than 50 cells in well = enough cells in well; Tnf reporter intensity, replicate 1 = 382; Tnf reporter intensity, replicate 2 = 297; call = inactive
Rhag | Tnf reporter robust z-score = -1.07; fewer than 50 cells in well = enough cells in well; Tnf reporter intensity, replicate 1 = 151; Tnf reporter intensity, replicate 2 = 123; call = inactive

Additional results follow:
Target gene | Tnf reporter robust z-score | fewer than 50 cells in well | Tnf reporter intensity, replicate 1 | Tnf reporter intensity, replicate 2 | call
Senp1 | 1.22 | enough cells in well | 434 | 270 | inactive
Sowahb | – | fewer than 50 cells per well; well left out of calls | 180 | 164 | inactive
Dll1 | -0.79 | enough cells in well | 197 | 124 | inactive
Pcmtd1 | -0.36 | enough cells in well | 152 | 133 | inactive
Or1j16 | -0.08 | enough cells in well | 187 | 109 | inactive
Tmem9b | – | fewer than 50 cells per well; well left out of calls | 113 | 65.5 | inactive
Il5 | -0.48 | enough cells in well | 194 | 131 | inactive
Rps24 | – | fewer than 50 cells per well; well left out of calls | 52.3 | 47.9 | inactive
Gas2 | -0.32 | enough cells in well | 204 | 233 | inactive
Uso1 | -1.03 | enough cells in well | 79.5 | 56.6 | inactive
Eid3 | 4.26 | enough cells in well | 509 | 271 | active
Cebpd | -1.84 | enough cells in well | 82.7 | 39.6 | active
Or2aj6 | 2.38 | enough cells in well | 332 | 214 | inactive
Zfp655 | -0.41 | enough cells in well | 208 | 62.8 | inactive
Dynll1 | -0.73 | enough cells in well | 187 | 144 | inactive
